Measured values taken from patent US20190359711A1.
Results are given in words; binding and its absence hold for the method and conditions named. Some entries that bind do so weakly or less than the wild type. For some assays here: Tags and fused reporters may be left off the sequences shown.

Columns and labels:
[1] = target: T1, TMEW1 (TMEFF2-FL-ECD-His-Avitag) (human) (UniProt Q9UIK5); experiment: SPR (ProteOn)
T1 sequence: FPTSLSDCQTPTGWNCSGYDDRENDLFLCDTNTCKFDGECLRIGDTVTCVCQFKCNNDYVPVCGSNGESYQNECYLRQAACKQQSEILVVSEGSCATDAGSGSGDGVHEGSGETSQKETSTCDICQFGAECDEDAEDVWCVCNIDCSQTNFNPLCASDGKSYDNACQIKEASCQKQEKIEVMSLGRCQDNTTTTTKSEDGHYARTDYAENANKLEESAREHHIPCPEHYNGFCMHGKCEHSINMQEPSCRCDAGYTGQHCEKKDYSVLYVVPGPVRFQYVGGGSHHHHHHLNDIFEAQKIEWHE

[2] = target: T2, TMEW19 (spTMEFF2(230-320)G3S-H6) (human) (UniProt Q9UIK5); experiment: SPR (ProteOn)
T2 sequence: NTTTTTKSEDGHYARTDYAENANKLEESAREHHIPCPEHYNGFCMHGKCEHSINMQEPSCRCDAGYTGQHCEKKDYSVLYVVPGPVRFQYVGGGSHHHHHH

B1: TMEB565 (antibody, human IgG4 S228P, kappa, F234A L235A, V domains shown)
VH: QVQLVQSGAEVKKPGSSVKVSCKASGGTFSSYYISWVRQAPGQGLEWMGGIIPISGRANYAQKFQGRVTITADESTSTAYMELSSLRSEDTAVYYCARDGYSSGRSTTYAFDYWGQGTLVTVSS
VL: EIVLTQSPGTLSLSPGERATLSCRASQSVATYYLAWYQQKPGQAPRLLIYGASSRATGIPDRFSGSGSGTDFTLTISRLEPEDFAVYYCQQYGYNPITFGQGTKVEIKR
[1]
  binding: binds
[2]
  binding: binds
